These results are taken from PMC13248759.

By UniProt entry, the sequences of proteins in these tests, tags left out. Where a name states a change or a piece, a line headed by the entry shows the natural chain unless it says otherwise.
UniProt Q9Y5X1: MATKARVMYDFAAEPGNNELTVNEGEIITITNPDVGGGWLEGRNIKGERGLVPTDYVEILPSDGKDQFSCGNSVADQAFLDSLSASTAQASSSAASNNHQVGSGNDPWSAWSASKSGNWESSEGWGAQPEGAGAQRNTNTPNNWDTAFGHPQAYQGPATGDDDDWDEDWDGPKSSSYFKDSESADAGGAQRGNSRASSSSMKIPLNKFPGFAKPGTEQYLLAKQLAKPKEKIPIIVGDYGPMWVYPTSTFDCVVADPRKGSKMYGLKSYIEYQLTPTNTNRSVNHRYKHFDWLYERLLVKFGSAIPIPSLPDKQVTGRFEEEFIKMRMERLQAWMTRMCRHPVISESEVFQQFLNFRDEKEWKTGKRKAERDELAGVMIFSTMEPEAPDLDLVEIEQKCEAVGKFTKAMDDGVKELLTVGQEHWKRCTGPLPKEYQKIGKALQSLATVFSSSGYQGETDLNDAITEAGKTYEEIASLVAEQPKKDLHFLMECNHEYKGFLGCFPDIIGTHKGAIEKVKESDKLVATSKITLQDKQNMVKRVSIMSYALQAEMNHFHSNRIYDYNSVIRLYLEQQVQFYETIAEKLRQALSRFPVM

One assay concerns the target T1, NUMB-1-GFP11 (human) (UniProt P49757).
T1 sequence: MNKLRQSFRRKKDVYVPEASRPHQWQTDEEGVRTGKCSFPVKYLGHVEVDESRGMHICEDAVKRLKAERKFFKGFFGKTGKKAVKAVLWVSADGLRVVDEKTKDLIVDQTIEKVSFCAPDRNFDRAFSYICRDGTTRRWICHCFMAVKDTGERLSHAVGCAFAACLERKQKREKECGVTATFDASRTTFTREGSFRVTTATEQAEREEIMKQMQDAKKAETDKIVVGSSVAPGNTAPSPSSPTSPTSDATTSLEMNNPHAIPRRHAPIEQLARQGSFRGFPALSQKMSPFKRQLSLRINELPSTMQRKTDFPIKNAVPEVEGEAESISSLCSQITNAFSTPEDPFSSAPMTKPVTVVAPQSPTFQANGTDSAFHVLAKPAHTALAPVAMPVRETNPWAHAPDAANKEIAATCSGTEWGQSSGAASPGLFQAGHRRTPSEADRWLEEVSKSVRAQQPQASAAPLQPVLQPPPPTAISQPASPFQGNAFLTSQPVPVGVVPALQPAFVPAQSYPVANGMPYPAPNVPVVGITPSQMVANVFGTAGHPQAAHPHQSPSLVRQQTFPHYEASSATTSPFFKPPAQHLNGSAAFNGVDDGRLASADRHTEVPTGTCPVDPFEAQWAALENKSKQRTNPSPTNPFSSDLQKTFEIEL
Kind of assay: split reporter; tripartite split-GFP: SNX9-GFP10 and NUMB-1-GFP11 transfected into HEK-293 cells stably expressing GFP 1-9 and KO for SNX9 and NUMB; GFP fluorescence imaged.

In assay [1] the target is T2, NUMB-1 as used in the SEC analysis of Figure S6C (human) (UniProt P49757).
T2 sequence: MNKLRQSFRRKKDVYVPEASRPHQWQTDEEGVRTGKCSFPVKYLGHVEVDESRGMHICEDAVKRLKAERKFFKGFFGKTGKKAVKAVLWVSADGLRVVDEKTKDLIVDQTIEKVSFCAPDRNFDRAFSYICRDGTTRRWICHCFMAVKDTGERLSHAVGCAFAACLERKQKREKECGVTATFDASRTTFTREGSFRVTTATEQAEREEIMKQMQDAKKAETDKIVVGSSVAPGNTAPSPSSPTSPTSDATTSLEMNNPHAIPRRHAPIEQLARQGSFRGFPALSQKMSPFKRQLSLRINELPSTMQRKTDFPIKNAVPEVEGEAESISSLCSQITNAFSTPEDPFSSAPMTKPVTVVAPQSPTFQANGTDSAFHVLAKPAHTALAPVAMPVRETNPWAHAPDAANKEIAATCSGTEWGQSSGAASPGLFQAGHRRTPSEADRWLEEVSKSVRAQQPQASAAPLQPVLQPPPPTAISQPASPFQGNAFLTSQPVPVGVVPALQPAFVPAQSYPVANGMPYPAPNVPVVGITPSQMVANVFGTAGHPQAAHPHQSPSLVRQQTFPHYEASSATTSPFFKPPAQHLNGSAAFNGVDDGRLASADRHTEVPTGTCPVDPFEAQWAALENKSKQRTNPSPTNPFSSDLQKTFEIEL
The experiment in a line: SEC; proteins combined at 100 uM (SNX9 FL counted as a dimer), MDM2 at 400 uM; Superdex 200 Increase 5/150 GL, 20 mM Tris pH 7.6, 200 mM NaCl, 0.5 mM EDTA, 1 mM DTT; fractions on SDS-PAGE, Coomassie; both purified. Background: Size exclusion chromatography separates by hydrodynamic size, large species first.

For assay [2], the target named is T3, GST-tagged NUMB-1 protein of the in vitro binding assay of Figure S6D (human) (UniProt P49757).
T3 sequence: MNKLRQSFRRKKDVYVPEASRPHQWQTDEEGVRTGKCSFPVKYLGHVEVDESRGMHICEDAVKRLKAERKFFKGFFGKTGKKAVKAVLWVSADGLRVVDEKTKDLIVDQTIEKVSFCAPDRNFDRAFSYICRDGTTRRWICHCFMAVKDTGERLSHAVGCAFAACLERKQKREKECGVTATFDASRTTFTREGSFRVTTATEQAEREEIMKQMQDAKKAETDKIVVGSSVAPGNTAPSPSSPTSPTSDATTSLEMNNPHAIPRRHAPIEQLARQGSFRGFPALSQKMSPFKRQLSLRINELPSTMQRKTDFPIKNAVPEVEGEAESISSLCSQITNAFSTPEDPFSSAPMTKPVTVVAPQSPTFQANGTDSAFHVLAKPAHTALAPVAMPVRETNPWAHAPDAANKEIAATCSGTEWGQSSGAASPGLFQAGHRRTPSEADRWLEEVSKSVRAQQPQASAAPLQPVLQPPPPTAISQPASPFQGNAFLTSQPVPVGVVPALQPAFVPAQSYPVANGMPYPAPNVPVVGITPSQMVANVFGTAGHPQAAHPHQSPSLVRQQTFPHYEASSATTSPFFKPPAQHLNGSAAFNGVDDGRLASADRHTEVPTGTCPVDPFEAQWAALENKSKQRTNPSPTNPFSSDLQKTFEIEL
The experiment in a line: pull-down; GST-tagged proteins (0.5 uM) on GSH beads, SNX9 proteins (1.5 uM) in solution, 2 h at 4 C, 10 mM Hepes pH 7.5, 150 mM NaCl, 5% glycerol, 0.1% Tween-20, Coomassie staining (Figure S6D); both purified.

In another assay the target is NUMB-4-FLAG (human). The experiment in a line: co-IP; lysates of transfected HEK-293 cells in JS buffer (50 mM HEPES pH 7.5, 150 mM NaCl, 1% Triton X-100), anti-FLAG or anti-HA beads, 2 h at 4 C, immunoblot; in some panels SNX9 siRNA or graded amounts of SNX9-HA.
A further assay deals with NUMB-3-FLAG (human). The assay is described as above.
The target in the next assay is NUMB-2-FLAG (human). The description is as above.

No constants are given. Whether binding was seen depends on the method and setting. For part of these data: A result given as binding can be weak or reduced; the word gives no strength. For part of these data: Where a sequence is shown, tags or fusion partners need not be part of it. For part of these data: Binding seen in cells or lysates may run through a third protein.

Consider SNX9-PXmut-GFP10 (from UniProt Q9Y5X1), for which the binding entry in the assay with NUMB-1-GFP11 (human) is recorded as “no binding”.
Regarding “SNX9-PXmut, purified recombinant (from UniProt Q9Y5X1)”, the binding entry in assay [1] and in assay [2] was “binds” in each case.

B1: EPS15, endogenous (protein, UniProt P42566 1-896)
chain: MAAAAQLSLTQLSSGNPVYEKYYRQVDTGNTGRVLASDAAAFLKKSGLPDLILGKIWDLADTDGKGILNKQEFFVALRLVACAQNGLEVSLSSLNLAVPPPRFHDTSSPLLISGTSAAELPWAVKPEDKAKYDAIFDSLSPVNGFLSGDKVKPVLLNSKLPVDILGRVWELSDIDHDGMLDRDEFAVAMFLVYCALEKEPVPMSLPPALVPPSKRKTWVVSPAEKAKYDEIFLKTDKDMDGFVSGLEVREIFLKTGLPSTLLAHIWSLCDTKDCGKLSKDQFALAFHLISQKLIKGIDPPHVLTPEMIPPSDRASLQKNIIGSSPVADFSAIKELDTLNNEIVDLQREKNNVEQDLKEKEDTIKQRTSEVQDLQDEVQRENTNLQKLQAQKQQVQELLDELDEQKAQLEEQLKEVRKKCAEEAQLISSLKAELTSQESQISTYEEELAKAREELSRLQQETAELEESVESGKAQLEPLQQHLQDSQQEISSMQMKLMEMKDLENHNSQLNWCSSPHSILVNGATDYCSLSTSSSETANLNEHVEGQSNLESEPIHQESPARSSPELLPSGVTDENEVTTAVTEKVCSELDNNRHSKEEDPFNVDSSSLTGPVADTNLDFFQSDPFVGSDPFKDDPFGKIDPFGGDPFKGSDPFASDCFFRQSTDPFATSSTDPFSAANNSSITSVETLKHNDPFAPGGTVVAASDSATDPFASVFGNESFGGGFADFSTLSKVNNEDPFRSATSSSVSNVVITKNVFEETSVKSEDEPPALPPKIGTPTRPCPLPPGKRSINKLDSPDPFKLNDPFQPFPGNDSPKEKDPEIFCDPFTSATTTTNKEADPSNFANFSAYPSEEDMIEWAKRESEREEEQRLARLNQQEQEDLELAIALSKSEISEA
For B1, the binding entry with NUMB-4-FLAG (human), with NUMB-3-FLAG (human) and with NUMB-2-FLAG (human) was “binds” in each case.
